From the supplement of paper PMC10735217
Counter-ions that a name gives are not always drawn. This is one part of the list. This data set is noisy: repeats of one test often differ as much as different tests do.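 The human kidney-derived cells carry a stably integrated construct of eight TEAD-binding elements driving luciferase, read by luminescence in a drug-repurposing library screen. A compound counts as a hit when its signal is more than five robust Z scores above the plate mean.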

System: HEK293A TEAD-LUC reporter
Assay: TEAD-luciferase reporter activity (YAP activation), robust Z score vs plate; higher = stronger YAP/TEAD activation
Details: 24 h

Row | Compound | TEAD-luciferase reporter activity (compound concentration: 200 nM) | TEAD-luciferase reporter activity (compound concentration: 2 uM) | TEAD-luciferase reporter activity (compound concentration: 10 uM)
1 | COc1cc(Br)c2oc(C3CCNCC3)cc2c1 | inactive: -0.833 | inactive: -0.458 | inactive: 1.04
2 | CC[C@H](Nc1nc(NCc2cnc(C)cc2C)c2ncn(C(C)C)c2n1)[C@@H](C)O | inactive: 2.32 |  | inactive: -0.386
3 | CCOC(=O)N1CCC(=O)N(c2ccccc2)c2ccc(Cl)cc21 [analog of arfendazam] | inactive: -0.335 | inactive: -1 | inactive: -1.38
4 | CC(Cc1ccccc1)N[C@@H](C)COc1ccccc1 (some centres not stated) | inactive: 1.45 | inactive: -0.943 | inactive: 2.3
5 | COC(=O)C[C@](O)(CCC(C)(C)O)C(=O)O[C@@H]1C(OC)=C[C@]23CCCN2CCc2cc4c(cc2[C@H]13)OCO4 [Harringtonine] | inactive: -0.433 | inactive: -2.27 | inactive: -1.59
6 | [O-][n+]1ccccc1S [omadine] |  | inactive: 3.42 | 
7 | [O-][n+]1ccccc1S [Zinc Pyrithione] | inactive: -0.996 | inactive: -2.38 | inactive: -3.37
8 | COc1cccc(C(=O)N2CCCC2C(=O)N2CCC(N3Cc4ccccc4C3=O)CC2)c1 (configuration not stated) | inactive: -2.78 |  | inactive: 0.739
9 | C=CCN1CC[C@]23CCCCC2[C@H]1Cc1ccc(O)cc13 (some centres not stated) | inactive: 2.88 | inactive: 0.492 | inactive: -1.14
10 | CC(C)(C)NCC(O)c1cc(Cl)c(N)c(C(F)(F)F)c1 (configuration not stated) [mabuterol] | inactive: 0.807 | inactive: -0.624 | inactive: 3.15
11 | C[C@]12CCC(=O)C=C1CC[C@@H]1[C@@H]2[C@@H](O)C[C@]2(C)C(=O)CC[C@@H]12 | inactive: -0.29 | inactive: 1.17 | inactive: 0.309
12 | O=C1Nc2ccc(Cl)cc2C(c2ccccc2Cl)=NC1O (configuration not stated) | inactive: -0.519 |  | inactive: 3.99
13 | CN1C(=S)CN=C(c2ccccc2)c2cc(Cl)ccc21 | inactive: -1.03 | inactive: 3.52 | inactive: -0.016
14 | CNCC(O)c1cc(OC)c(O)c(OC)c1 (configuration not stated) | inactive: -1.08 | inactive: 0.0942 | active: 6.01
15 | CCN(C)C(=O)Oc1cccc([C@H](C)N(C)C)c1 [rivastigmine tartrate] | inactive: -2.78 | inactive: -0.574 | inactive: 0.237
16 | Cc1c2c(cn1C)NC(=O)CN=C2c1ccccc1 [premazepam] | inactive: 3.32 | inactive: -0.54 | inactive: 0.293
17 | CN(C(=N)Nc1cccc2ccccc12)c1cccc(I)c1 | inactive: -2.58 | inactive: -0.793 | inactive: -0.726
18 | COc1ccc2c3c1OC1C(=O)C=CC4(O)C(C2)N(C)CCC314 (configuration not stated) [14-Hydroxycodei] | inactive: 4.72 | inactive: -0.483 | inactive: 0.613
19 | NCC(CC(=O)O)c1ccccc1 (configuration not stated) [Phenibut] | inactive: -1.11 | inactive: -1.92 | inactive: 1.51
20 | CN1CCN(c2cccc3[nH]c(=O)oc23)CC1 [Pardoprunox (hydrochloride)] | inactive: -2 | inactive: 1.03 | inactive: 3.95

Row | Compound | TEAD-luciferase reporter activity (compound concentration: 200 nM) | TEAD-luciferase reporter activity (compound concentration: 2 uM) | TEAD-luciferase reporter activity (compound concentration: 10 uM)
21 | C[C@@]1(CO)[C@H](O)CC[C@@]2(C)[C@H]1CC[C@H]1C[C@@H]3C[C@@]12CC[C@]3(O)CO | inactive: -1.74 | inactive: -0.831 | inactive: -0.684
22 | CCOC(=O)c1ncc2[nH]c3ccc(OCc4ccccc4)cc3c2c1COC | inactive: -0.995 | inactive: -0.567 | inactive: 0.217
23 | O=C(C[N+]12CCC(CC1)[C@@H](OC(=O)N(Cc1cc(F)c(F)c(F)c1)c1cccc(F)c1)C2)c1cccs1 | inactive: -0.714 | inactive: -0.541 | inactive: -0.153
24 | NCP(=O)(O)O | inactive: 0.462 |  | inactive: 0.00464
25 | OC[C@H]1O[C@@H](n2cnc3cc(Cl)c(Cl)cc32)[C@H](O)[C@@H]1O | inactive: -1.09 | inactive: -1.7 | inactive: 0.366
26 | CN1C[C@H](Cn2cncn2)CC2c3cccc4[nH]cc(c34)C[C@H]21 (some centres not stated) | inactive: -1.47 | inactive: -0.228 | inactive: 2.83
27 | CCc1cccc2c(-c3nsc(CN4CCCC4)n3)cn(CC3CCCCC3)c12 | inactive: -0.305 | inactive: 1.09 | inactive: -0.718
28 | CC(C)N1CC2CCC(C1)N2C(=O)N1CCCC1 | inactive: -1.89 |  | inactive: 1.51
29 | COC(=O)[C@@H]1C[C@H](OC(C)=O)C(=O)[C@H]2[C@@]1(C)CC[C@H]1C(=O)O[C@H](c3ccoc3)C[C@]21C [Salvinorin A] | inactive: -1.41 | inactive: 2.52 | active: 7.06
30 | CN(C)CCc1c[nH]c2ccc(C3=CCN(C)CC3)cc12 | inactive: -0.372 | inactive: -2.11 | inactive: 0.703
31 | CCOP(=O)(OCC)C(C)NC(=O)N(CCCl)N=O (configuration not stated) [fotemustine] | inactive: -0.771 | inactive: -2.12 | inactive: -1.41
32 | O=[N+]([O-])OCc1cccc(Cl)c1 | inactive: 1.52 | inactive: -1.99 | inactive: -0.36
33 | CCOC(=O)CC(NC(=O)C(Cc1ccc(N(CCCl)CCCl)cc1)NC(C)=O)C(=O)OCC (configuration not stated) | inactive: -1.73 | inactive: -0.744 | inactive: 1.67
34 | NC(=O)OCC(Cl)(Cl)Cl | inactive: 0.723 | inactive: -0.243 | inactive: -0.234
35 | COc1ccc2c3c([nH]c2c1)[C@H](C=C(C)C)N1C(=O)[C@@H]2CCCN2C(=O)[C@@H]1C3 [Fumitremorgin C] | inactive: -1.03 | inactive: -0.521 | inactive: 1.97
36 | CC12CC[C@@H]3C4CCC(=O)C=C4CCC3[C@@H]1CC[C@@H]2OC(=O)C12C[C@H]3C[C@@H](C1)C[C@@H](C2)C3 (some centres not stated) | inactive: 3.87 | inactive: -0.0921 | inactive: -0.345
37 | CNCC/C=C/c1cccnc1 | inactive: 2.38 |  | inactive: -0.558
38 | CNCC/C=C/c1cccnc1 [Rivanicline] |  | inactive: -1.12 | 
39 | CN1[C@@H]2CC[C@H]1C[C@@H](OC(=O)C(c1ccccc1)c1ccccc1)C2 | inactive: -0.535 | inactive: 0.0795 | inactive: 0.93

An excerpt of these results, in markdown.

| Row | Compound | TEAD-luciferase reporter activity (compound concentration: 200 nM) | TEAD-luciferase reporter activity (compound concentration: 2 uM) | TEAD-luciferase reporter activity (compound concentration: 10 uM) |
| --- | --- | --- | --- | --- |
| 13 | CN1C(=S)CN=C(c2ccccc2)c2cc(Cl)ccc21 | inactive: -1.03 | inactive: 3.52 | inactive: -0.016 |
| 37 | CNCC/C=C/c1cccnc1 | inactive: 2.38 |  | inactive: -0.558 |
